Among the data in paper PMC6723352, “Exploring Structure-Activity Relationship in Tacrine-Squaramide Derivatives as Potent Cholinesterase Inhibitors” (Biomolecules, 2019) are Pe values, retold here.

The conditions of this data set: PAMPA, PBS pH 7.4. From the text: An important feature for drugs targeting the brain is their ability to cross the BBB. The parallel artificial membrane permeability assay (PAMPA) is a high-throughput screening tool applicable for prediction of passive transport across BBB [57]. […] These include mainly (i) the different composition of the human phospholipid bilayer may cause deviation in predicted permeability, (ii) omitting the absorption of compounds that are actively transported by influx transporters and pumped-out by various efflux mechanisms with the glycoprotein P at the forefront or (iii) transport through the paracellular route which is mostly exploited by small hydrophobic molecules. […]
PAMPA (the parallel artificial membrane permeability assay) is a high-throughput screening tool applicable for prediction of the passive transport of potential drugs across the blood-brain barrier (BBB). […] The concentration of the tested compound in both donor and the acceptor wells were assessed after 3, 4, 5 and 6 h of incubation in quadruplicate using the UV plate reader Synergy HT (Biotek, USA) at the maximum absorption wavelength of each compound (n = 3). Besides that, the solution of theoretical compound concentration, simulating the equilibrium state, established if the membrane was ideally permeable was prepared and assessed as well.

On to `NS(=O)(=O)c1cc(C(=O)O)c(NCc2ccco2)cc1Cl` [furosemide, reference compound], for which the Pe is 0 cm/s.
